Publication PMC5854669, “Zinc knuckle of TAF1 is a DNA binding module critical for TFIID promoter occupancy”
These are yes or no findings as the source states them, for the method shown. Binding seen in cells or lysates may run through a third protein. Binding calls can cover weak binding; strength is not graded here.

The chains behind the UniProt entries cited, without tags or fusion partners. Where a name states a change or a piece, a line headed by the entry shows the natural chain unless it says otherwise.
UniProt O00268: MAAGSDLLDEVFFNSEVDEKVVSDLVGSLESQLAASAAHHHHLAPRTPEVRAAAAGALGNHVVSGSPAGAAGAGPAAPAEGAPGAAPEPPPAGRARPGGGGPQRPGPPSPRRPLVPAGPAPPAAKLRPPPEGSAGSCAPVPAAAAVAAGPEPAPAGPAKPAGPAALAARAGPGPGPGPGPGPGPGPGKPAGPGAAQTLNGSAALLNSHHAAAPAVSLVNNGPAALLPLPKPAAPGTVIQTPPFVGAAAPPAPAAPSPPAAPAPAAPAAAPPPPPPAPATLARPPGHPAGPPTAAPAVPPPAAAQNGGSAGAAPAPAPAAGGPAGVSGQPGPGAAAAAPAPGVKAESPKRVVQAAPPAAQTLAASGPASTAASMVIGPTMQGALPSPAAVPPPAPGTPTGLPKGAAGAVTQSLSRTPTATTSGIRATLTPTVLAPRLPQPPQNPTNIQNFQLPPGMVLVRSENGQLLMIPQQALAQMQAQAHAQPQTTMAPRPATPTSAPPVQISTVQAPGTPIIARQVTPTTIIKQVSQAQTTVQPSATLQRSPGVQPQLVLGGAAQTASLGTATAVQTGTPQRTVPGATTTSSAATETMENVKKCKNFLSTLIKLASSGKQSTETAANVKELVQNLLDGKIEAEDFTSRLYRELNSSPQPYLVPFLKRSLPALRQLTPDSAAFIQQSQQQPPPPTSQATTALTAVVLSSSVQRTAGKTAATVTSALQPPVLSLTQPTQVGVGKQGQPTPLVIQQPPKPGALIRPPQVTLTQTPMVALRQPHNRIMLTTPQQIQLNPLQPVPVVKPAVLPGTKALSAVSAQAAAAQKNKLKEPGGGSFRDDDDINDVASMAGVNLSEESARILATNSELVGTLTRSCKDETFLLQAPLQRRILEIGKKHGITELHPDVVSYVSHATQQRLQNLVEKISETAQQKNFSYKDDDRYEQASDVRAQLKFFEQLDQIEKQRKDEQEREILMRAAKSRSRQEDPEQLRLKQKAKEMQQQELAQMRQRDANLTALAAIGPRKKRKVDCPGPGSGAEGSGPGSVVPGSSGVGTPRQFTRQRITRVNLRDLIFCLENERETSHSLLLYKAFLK
UniProt P21675: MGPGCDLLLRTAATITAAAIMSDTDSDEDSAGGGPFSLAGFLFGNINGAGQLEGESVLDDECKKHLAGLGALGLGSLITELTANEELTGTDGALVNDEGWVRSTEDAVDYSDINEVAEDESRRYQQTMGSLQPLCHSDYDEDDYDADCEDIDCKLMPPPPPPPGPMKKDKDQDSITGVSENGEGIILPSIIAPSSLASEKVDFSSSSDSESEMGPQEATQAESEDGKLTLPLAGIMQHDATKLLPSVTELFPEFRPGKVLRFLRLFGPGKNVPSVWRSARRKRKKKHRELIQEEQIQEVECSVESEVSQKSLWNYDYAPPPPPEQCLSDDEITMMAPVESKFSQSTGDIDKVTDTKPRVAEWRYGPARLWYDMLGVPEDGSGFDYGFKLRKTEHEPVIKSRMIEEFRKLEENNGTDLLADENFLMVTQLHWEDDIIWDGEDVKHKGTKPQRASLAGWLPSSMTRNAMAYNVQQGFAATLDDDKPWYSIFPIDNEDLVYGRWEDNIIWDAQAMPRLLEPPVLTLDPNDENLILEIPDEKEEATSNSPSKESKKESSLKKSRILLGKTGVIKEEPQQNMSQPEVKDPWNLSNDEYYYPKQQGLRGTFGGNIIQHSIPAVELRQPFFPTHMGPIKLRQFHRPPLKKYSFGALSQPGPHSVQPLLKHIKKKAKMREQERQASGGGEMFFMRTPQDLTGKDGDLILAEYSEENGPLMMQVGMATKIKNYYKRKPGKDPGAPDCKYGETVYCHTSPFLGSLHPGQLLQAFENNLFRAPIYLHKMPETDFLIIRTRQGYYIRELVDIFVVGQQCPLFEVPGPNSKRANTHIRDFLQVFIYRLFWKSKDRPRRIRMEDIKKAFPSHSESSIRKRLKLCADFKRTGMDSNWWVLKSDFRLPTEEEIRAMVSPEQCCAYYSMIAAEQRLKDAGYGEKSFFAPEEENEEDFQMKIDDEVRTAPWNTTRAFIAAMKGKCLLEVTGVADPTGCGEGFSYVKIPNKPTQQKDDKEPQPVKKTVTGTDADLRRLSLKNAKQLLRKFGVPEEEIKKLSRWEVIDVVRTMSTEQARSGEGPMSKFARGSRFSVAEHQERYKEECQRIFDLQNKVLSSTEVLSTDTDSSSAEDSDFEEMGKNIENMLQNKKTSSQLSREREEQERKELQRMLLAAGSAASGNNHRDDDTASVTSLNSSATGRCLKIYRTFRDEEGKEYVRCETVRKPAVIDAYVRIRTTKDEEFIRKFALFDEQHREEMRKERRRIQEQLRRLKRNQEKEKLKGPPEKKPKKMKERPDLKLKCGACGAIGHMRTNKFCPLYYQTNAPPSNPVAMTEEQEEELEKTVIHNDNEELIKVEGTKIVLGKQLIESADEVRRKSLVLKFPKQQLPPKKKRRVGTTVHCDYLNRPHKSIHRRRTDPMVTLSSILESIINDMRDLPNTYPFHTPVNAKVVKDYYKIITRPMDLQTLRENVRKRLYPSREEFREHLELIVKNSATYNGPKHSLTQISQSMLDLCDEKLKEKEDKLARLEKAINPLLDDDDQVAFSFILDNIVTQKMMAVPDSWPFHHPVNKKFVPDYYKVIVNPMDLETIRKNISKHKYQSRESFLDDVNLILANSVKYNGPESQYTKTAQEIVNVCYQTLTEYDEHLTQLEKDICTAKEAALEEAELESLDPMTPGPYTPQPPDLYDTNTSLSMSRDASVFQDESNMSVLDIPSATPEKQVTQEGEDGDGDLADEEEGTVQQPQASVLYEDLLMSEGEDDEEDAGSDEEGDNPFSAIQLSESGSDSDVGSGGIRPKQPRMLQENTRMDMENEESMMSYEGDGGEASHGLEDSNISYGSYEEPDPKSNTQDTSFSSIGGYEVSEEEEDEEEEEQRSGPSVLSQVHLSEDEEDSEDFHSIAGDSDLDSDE

Molecular target: TAF4 subunit of TFIID (human (endogenous in HEK293)) (UniProt O00268)
Experiment: co-IP; HEK293 nuclear extract (buffer C, 420 mM NaCl) incubated with anti-TAF4 mAb 3A6 overnight at 4 °C, protein A-Sepharose, washed 5 times with buffer C; immunoblot with anti-HA and antibodies against TBP, TAF4 and TAF5

binding: binds
Substance: HA-TAF1 winged-helix mutant (WH3A) (from UniProt P21675)
